# PubChem BioAssay AID1259254 – NCATS – 2017
# Screen: 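Gene knock-downs that lead to re-replication, shown by excess G2 DNA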 (primary screen)
# Cells: human HCT116 colorectal cancer cells
# Reagents: single siRNA against human genes
# Duration: 3 days
# Measurement: 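Nuclei stained with Hoechst and imaged; cell-cycle phase assigned by DNA content; G2 share scaled per plate, non-targeting siRNA 0%, GMNN siRNA 100%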
# Scale: G2 robust z-score and G2 cells, % of GMNN control: higher = more G2 cells, more excess DNA replication; raw share of cells in G2: higher = larger share of cells with G2 DNA content
# Active means: 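An siRNA counts as active if its G2 robust z-score lies at least 5 MADs above the screen median; here such calls match roughly 38% of GMNN control or more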
# In all, the deposit lists about 59,000 reagents; below is a part drawn at random. Of all reagents, about 1,550 (2.6%) got an active call. 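G2 share is only a proxy for re-replication; each gene was hit by three separate siRNAs, and active genes were retested.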 The raw values are shown without normalisation. Reagents against one gene are numbered here. Not stated in the record: the amount of reagent.
gene symbol,reagent no.,G2 robust z-score,"G2 cells, % of GMNN control",raw share of cells in G2 (%),outcome
HPF1,1,-0.194,1.6,4.18,inactive
HPF1,2,1.58,14.1,10.2,inactive
HPF1,3,-0.483,-0.432,3.05,inactive
ARL6IP5,1,-0.642,-1.55,5.02,inactive
ARL6IP5,2,-0.614,-1.35,5.95,inactive
ARL6IP5,3,0.317,5.2,5.52,inactive
TNFSF4,1,0.469,6.27,7.91,inactive
TNFSF4,2,0.924,9.47,7.65,inactive
TNFSF4,3,5.3,40.3,17.6,active
LCN9,1,-0.937,-3.63,2.96,inactive
LCN9,2,0.304,5.11,8.11,inactive
LCN9,3,-0.603,-1.28,4.46,inactive
UBE2D4,1,0.586,7.09,6.52,inactive
UBE2D4,2,-0.542,-0.843,3.93,inactive
UBE2D4,3,-0.71,-2.03,5.03,inactive

Part of the list above, showing only “G2 robust z-score”:
ARL6IP5 #2: -0.614
ARL6IP5 #3: 0.317
TNFSF4 #1: 0.469
TNFSF4 #2: 0.924
TNFSF4 #3: 5.3

The results go on.
gene symbol,reagent no.,G2 robust z-score,"G2 cells, % of GMNN control",raw share of cells in G2 (%),outcome
GGT2P,1,-0.982,-3.94,2.05,inactive
GGT2P,2,-0.428,-0.0435,3.58,inactive
GGT2P,3,2.02,17.2,8.93,inactive
KCNE2,1,-0.232,1.33,5.77,inactive
KCNE2,2,4.09,31.8,15.5,inactive
KCNE2,3,4.59,35.3,18.1,inactive
DDTL,1,0.445,6.1,6.58,inactive
DDTL,2,3.09,24.7,11.8,inactive
DDTL,3,-0.287,0.95,3.38,inactive
DLAT,1,-0.0459,2.64,5.9,inactive
DLAT,2,1.35,12.5,8.4,inactive
DLAT,3,-0.706,-2,4.26,inactive
PYROXD2,1,0.623,7.35,6.55,inactive
PYROXD2,2,0.801,8.6,6.01,inactive
PYROXD2,3,0.882,9.17,5.19,inactive
